# Assay results: article PMC7819943, “Rice protein-binding microarrays: a tool to detect cis-acting elements near promoter regions in rice”
# By UniProt entry, the sequences of proteins in these tests, tags left out.
# UniProt Q0JBA9, entry or part of it: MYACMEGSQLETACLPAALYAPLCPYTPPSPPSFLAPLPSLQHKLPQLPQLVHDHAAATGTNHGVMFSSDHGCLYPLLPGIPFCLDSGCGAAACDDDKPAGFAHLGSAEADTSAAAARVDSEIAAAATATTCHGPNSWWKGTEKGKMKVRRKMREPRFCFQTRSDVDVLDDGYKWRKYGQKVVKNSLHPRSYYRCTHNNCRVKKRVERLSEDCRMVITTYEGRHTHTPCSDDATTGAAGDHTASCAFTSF
# The other results are listed elsewhere or left out.
# Target: OsWRKY34 (Oryza sativa, UniProt Q0JBA9 1-250)
# Test: protein-binding microarray (RPBM); PBS, 2% BSA, 51.3 ng/ul salmon testes DNA, 50 uM zinc acetate, 200 nM TF, 25 C, 1 h; high values mean tight binding
# Details: protein: recombinant; tags: N-terminal polyhistidine and DsRed monomer fusion (pET32a); label: CyDye5-dUTP incorporated in the synthesized complementary strand; 3' TTTTT single-stranded linker to array surface; dsDNA, one strand shown
# Summary of the method: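 The binding signal for each feature is its fluorescence intensity in arbitrary units. An Axon 4000B scanner was used to read a custom Agilent array that had been made double-stranded with Cy5-dUTP primer extension, blocked with 2% BSA, incubated at 25 °C for 1 h with 200 nM protein in PBS, 2% BSA, salmon testes DNA and 50 µM zinc acetate, and washed. The protein was an N-terminal polyhistidine–DsRed transcription factor fusion from E. coli BL21-CodonPlus, purified on Ni–NTA.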
row,Sequence,binding signal
1,ACCGCTTCGCCGAGCTCCTGGCTGCCGACACCAACACCGTCGGAGTCACCTAGTGCAG,9180 fluorescence intensity (a.u.)
2,GCTGCCCGCTCTAATCTGTTTTGTCTCCATCTGCTATGATCGGAGTCACCTAGTGCAG,8950 fluorescence intensity (a.u.)
3,ACCCGCTTCTCGTCTCCTCGTCTCCTCGTTCGTCTCTCGCCGGAGTCACCTAGTGCAG,18000 fluorescence intensity (a.u.)
4,GGCGTGATAGTATTATTTTGCCACGTCAAATGTTCAGATTCGGAGTCACCTAGTGCAG,8380 fluorescence intensity (a.u.)
5,GAGCTTCATGCGCCACTTCTGCTTCCGCTCCACCGCGCAGCGGAGTCACCTAGTGCAG,8310 fluorescence intensity (a.u.)
6,ATCCCGAACGAAAATCGGAGCGTTACATTAGCCACCGCCGCGGAGTCACCTAGTGCAG,8780 fluorescence intensity (a.u.)
7,CTATATTCAGTGTGCATATGTGTATTCCGTGTAATTTATTCGGAGTCACCTAGTGCAG,9070 fluorescence intensity (a.u.)
8,CCTCTCCCATCATTTCTCACACACACATGTAAAACTCCCCCGGAGTCACCTAGTGCAG,9800 fluorescence intensity (a.u.)
9,GACGACGGGTGTCTCGGTTGGGGTGAGGGTGGGCCCCACTCGGAGTCACCTAGTGCAG,10200 fluorescence intensity (a.u.)
10,CCGGCCACTACTCCTCCCGCACGCATCGTCTTCCAGCCTGCGGAGTCACCTAGTGCAG,8720 fluorescence intensity (a.u.)
11,ATTTACATTTGATTGTACGCTTGTTTACCGGTTACTGTCACGGAGTCACCTAGTGCAG,8400 fluorescence intensity (a.u.)
12,CCTATTACCATCTCAATCACCCATTCTCTCTCCAGCCACCCGGAGTCACCTAGTGCAG,8840 fluorescence intensity (a.u.)
13,CTTCTAACTTTTTCTATCATATTAATATCTCATACACACACGGAGTCACCTAGTGCAG,8250 fluorescence intensity (a.u.)
14,GATGATGTGACTAAAAAGTTGTGTGTATATGACAGGTTGACGGAGTCACCTAGTGCAG,8160 fluorescence intensity (a.u.)
15,CGACGGGAGAGGAGGAGCCGGTGGGCGGGGTGGGGCCCACCGGAGTCACCTAGTGCAG,11000 fluorescence intensity (a.u.)
16,CTAGAGTTTATTTTATTTTTTTTTCATCTATTTAGTCCAACGGAGTCACCTAGTGCAG,8960 fluorescence intensity (a.u.)
17,ACCGTCCACGTGTCCCATGCTGCCGGCCCTTCCACACCCGCGGAGTCACCTAGTGCAG,9410 fluorescence intensity (a.u.)
18,CGTTGCATCTTTTCTCAGATTACCTATGTTAATGTACAATCGGAGTCACCTAGTGCAG,8570 fluorescence intensity (a.u.)
19,CTGGCACTTGGCACTTGGTTAATTCCACTCACTCATCACTCGGAGTCACCTAGTGCAG,8260 fluorescence intensity (a.u.)
20,GCGCCTCTTCTTCAACACGCGGGAGTGGGCCGATCAGTTCCGGAGTCACCTAGTGCAG,8600 fluorescence intensity (a.u.)
21,TGCCTGAGTTTGGATTAGAGGGGTGCCTATATGGTGAAAACGGAGTCACCTAGTGCAG,9460 fluorescence intensity (a.u.)
22,TTGTGGGCTCATGAAAATTCCTTGTGTTTTTTGGCAATTACGGAGTCACCTAGTGCAG,8400 fluorescence intensity (a.u.)
23,TCTCTATGGTACATCCCCGTAATGTTCTCTTACATATGGGCGGAGTCACCTAGTGCAG,8130 fluorescence intensity (a.u.)
24,TGTTTGCTTGCTTGATTGGTCCCTTGTCTTGTTATTAGTCCGGAGTCACCTAGTGCAG,8460 fluorescence intensity (a.u.)
25,TTTCCTGGGCCTATAAATTCGGCATCACGCCCAACGCATCCGGAGTCACCTAGTGCAG,8140 fluorescence intensity (a.u.)
26,GTCGCTTGTAACTTGTAAGGCGTGTGACTGTTGCCGTGATCGGAGTCACCTAGTGCAG,9070 fluorescence intensity (a.u.)
27,GGTTTGATATGAGCCTGTCAACATGTCCCTGCTAAGCTTACGGAGTCACCTAGTGCAG,9080 fluorescence intensity (a.u.)

row,Sequence,binding signal
1,CTCTCACCCTGCCCCGTCCGTAATCCCGTCCCGTTCCGTTCGGAGTCACCTAGTGCAG,8290 fluorescence intensity (a.u.)
2,TTCTAATATACTGAAGTTACTGTTTCATTTGTTTTTAGACCGGAGTCACCTAGTGCAG,8330 fluorescence intensity (a.u.)
3,GGTCTCCGGCGTCCACACCATCTACTACGAGCAGTCCGGGCGGAGTCACCTAGTGCAG,10500 fluorescence intensity (a.u.)
4,GCTCCAGCCTCCGCTCATCCCAAGCCTTCCACCACAACCCCGGAGTCACCTAGTGCAG,8340 fluorescence intensity (a.u.)
5,TAACTCAATTCATCCACCCATGCTCAATCTTGTACGGGCGCGGAGTCACCTAGTGCAG,12100 fluorescence intensity (a.u.)
6,TACTCCATCCCACTTCGTTGTCATCTCTGATGAATCTTTTCGGAGTCACCTAGTGCAG,8950 fluorescence intensity (a.u.)
7,AAAATTTTTCACCCTGTCATATCATATGTTTCGATATATGCGGAGTCACCTAGTGCAG,12200 fluorescence intensity (a.u.)
8,CACCGTTCTCTCCTTGGCAAACAACTTCTTCTTTGGCGAGCGGAGTCACCTAGTGCAG,8780 fluorescence intensity (a.u.)
9,GATCTGTGCCTATCAGCGCTGTTCGTCGTCGTCCTCTCCACGGAGTCACCTAGTGCAG,9820 fluorescence intensity (a.u.)
10,AATCATTTACTTCCCGTGTATTTTTGTCAATAATGGTATCCGGAGTCACCTAGTGCAG,13800 fluorescence intensity (a.u.)
11,AGGTATAATGGTTTGTGTTCTGCTTGTTATGTGTGGGGTGCGGAGTCACCTAGTGCAG,9500 fluorescence intensity (a.u.)
12,AGCTGACATGTGTTCCCCATGTGTTTTTTTAATTTTTTTTCGGAGTCACCTAGTGCAG,8560 fluorescence intensity (a.u.)
13,CCCATCCATTCTCGCCGAGCCACCCATTCCGCCACCTCCACGGAGTCACCTAGTGCAG,10500 fluorescence intensity (a.u.)
14,AGCCTTTGTCGCAATGCATCCTCTAGCTTAATTTACTTATCGGAGTCACCTAGTGCAG,9780 fluorescence intensity (a.u.)
15,TTACAGTTAATCTGTAACATTTTTTTTTGCGGGGAAGTTACGGAGTCACCTAGTGCAG,9450 fluorescence intensity (a.u.)
16,TCGTGTGTGCGCAACTGTTTATATGCACGTGTAGCTGCTTCGGAGTCACCTAGTGCAG,8030 fluorescence intensity (a.u.)
17,ATCTCCCCTGCCGTCCTCACTGCTCCTGCGCTTGTGACTTCGGAGTCACCTAGTGCAG,9130 fluorescence intensity (a.u.)
18,CTTCTGCTGTCTGTGTACATGGGCCGCCTTCTATCTACGACGGAGTCACCTAGTGCAG,8360 fluorescence intensity (a.u.)
19,TCCGCCCGGGCCTCGCCGTCAAGCTCATCTCCACCCCGCGCGGAGTCACCTAGTGCAG,8050 fluorescence intensity (a.u.)
20,CCTTTAATTGTTTTCTGAATTTCATACTATAAGGCATATTCGGAGTCACCTAGTGCAG,8230 fluorescence intensity (a.u.)
21,TTATATTTAAGTGGGGTCATTTCTCTAATTTTTTTGAATTCGGAGTCACCTAGTGCAG,10200 fluorescence intensity (a.u.)
22,ATATTATAAGTTGTTTTGACTTTTTGCTAGTCAAACTTATCGGAGTCACCTAGTGCAG,14200 fluorescence intensity (a.u.)
23,ATTGTGTGTATTAAATAGTTTTCTATACGAAAGTTGTCTTCGGAGTCACCTAGTGCAG,9990 fluorescence intensity (a.u.)
24,TACATTATCCCGTGTTGTTGGTTATATGCTTGGTTTTATGCGGAGTCACCTAGTGCAG,9240 fluorescence intensity (a.u.)
25,GCTGCAATTTCTTGATTTCTTCCCAACCACAAGCCATTCGCGGAGTCACCTAGTGCAG,8120 fluorescence intensity (a.u.)
26,GTCGCAATTCTTTGATTCCCTTCGCGGAATTTTTCTTTCTCGGAGTCACCTAGTGCAG,9090 fluorescence intensity (a.u.)
27,ATCGGGCTTAGCGTCTCCACTCGTGTTCGTGTTGGTTCCTCGGAGTCACCTAGTGCAG,8360 fluorescence intensity (a.u.)

# Single values from the results shown:
# Under binding signal, TCCGCCCGGGCCTCGCCGTCAAGCTCATCTCCACCCCGCGCGGAGTCACCTAGTGCAG is listed with 8050 fluorescence intensity (a.u.)
# Under binding signal, GCTGCAATTTCTTGATTTCTTCCCAACCACAAGCCATTCGCGGAGTCACCTAGTGCAG is listed with 8120 fluorescence intensity (a.u.)
# Under binding signal, CCTTTAATTGTTTTCTGAATTTCATACTATAAGGCATATTCGGAGTCACCTAGTGCAG is listed with 8230 fluorescence intensity (a.u.)
